# Test results reported in the supplement of paper PMC9135407.
# “And” between values parts separate entries of the source, which are not always exact repeats. Equal entries are not always repeated. Structures can show the parent of a compound that is named as a salt. ± gives the standard deviation of the averaged measurements. Some of the results follow. Part of the spread comes from offsets between plates or batches.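 Culture-activated primary human stellate myofibroblasts, where regained lipid droplets signal inactivation. Value: share of Hoechst-counted cells above a per-plate Bodipy cutoff, in duplicate wells, with DMSO negative and nortriptyline positive controls on each plate. Hits: a control-normalized score above the plate's top-tenth-percentile nortriptyline wells, or one of a plate's three best wells. Final well concentrations are not given.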
# System: primary human hepatic stellate cells (donor 1)
# Experiment: percent Bodipy-positive cells; higher = more lipid droplet accumulation
# Conditions: 48 h
# [1] = library stock concentration: 1 mM
# [2] = library stock concentration: 10 mM
# [3] = library stock concentration: 80 uM
# [4] = library stock concentration: 400 uM
# [5] = library stock concentration: 2 mM
# [6] = library stock concentration: 3.33 mM
smiles,measurement,setting,value
CCCCC[C@H](O)/C=C/[C@H]1[C@H](O)CC(=O)[C@@H]1C/C=C\CCCC(=O)OCC(O)CO (stereo partly drawn) [Prostaglandin E2-1-glyceryl ester],percent Bodipy-positive cells,[1],11.1 ± 1.2%
O=C(O)c1cc2cc(Cc3cccnc3)ccc2o1 [Furegrelate (sodium salt)],percent Bodipy-positive cells,[1],8.96 ± 1.3%
COC(=O)C[C@](O)(CCCC(C)(C)O)C(=O)O[C@@H]1C(OC)=C[C@]23CCCN2CCc2cc4c(cc2[C@H]13)OCO4 [Homoharringtonine],percent Bodipy-positive cells,[2],88.3 ± 2.8%
NC(=O)c1ccc(I)c([N+](=O)[O-])c1 [Iniparib],percent Bodipy-positive cells,[3],37.2 ± 0.52%
same,percent Bodipy-positive cells,[4],52.2 ± 1.5%
same,percent Bodipy-positive cells,[5],36.2 ± 12%
same,percent Bodipy-positive cells,[2],39.2 ± 8.3%
NC(=O)c1ccc(I)c([N+](=O)[O-])c1 [Iniparib (BSI-201)],percent Bodipy-positive cells,[6],7.5 ± 0.1%
same,percent Bodipy-positive cells,[2],15.6 ± 7.1%
O=C(O)c1cc(N(Cc2ccccc2O)Cc2cc(O)ccc2O)ccc1O [Lavendustin A],percent Bodipy-positive cells,library stock concentration: 13.1 mM,10.7 ± 3.6%
COc1ccc(C2=N[C@@H](c3ccc(Cl)cc3)[C@@H](c3ccc(Cl)cc3)N2C(=O)N2CCNC(=O)C2)c(OC(C)C)c1,percent Bodipy-positive cells,[1],21.8 ± 11%
COc1ccc(C2=N[C@@H](c3ccc(Cl)cc3)[C@@H](c3ccc(Cl)cc3)N2C(=O)N2CCNC(=O)C2)c(OC(C)C)c1 [Nutlin-3],percent Bodipy-positive cells,[6],23.1 ± 3.1%
same,percent Bodipy-positive cells,[2],73.3 ± 7.5%
CN/C(=N\CCSCc1nc[nH]c1C)NC#N [Cimetidine],percent Bodipy-positive cells,,26.1 ± 0.43%
same,percent Bodipy-positive cells,[6],7.36 ± 1.4%
same,percent Bodipy-positive cells,library stock concentration: 7.9 mM,11.1% and 13.7%
"c1ccc(C2CN3CCSC3=N2)cc1 (single isomer, unassigned; (-)) [(-)-Tetramisole hydrochloride]",percent Bodipy-positive cells,[2],36.5 ± 4.1%
C=CC(=O)Nc1cc2c(Nc3ccc(F)c(Cl)c3)ncnc2cc1OCCCN1CCOCC1,percent Bodipy-positive cells,[2],79.4 ± 8.4%
CCc1cccc(CC)c1NC(=O)CN(CC(=O)O)CC(=O)O [Etifenin],percent Bodipy-positive cells,,40.3 ± 7.2%
OC1CCC(Nc2ncc3nc(Nc4c(F)cc(F)cc4F)n([C@@H]4CCOC4)c3n2)CC1 (stereo partly drawn),percent Bodipy-positive cells,[3],8.64 ± 3.5%
same,percent Bodipy-positive cells,[4],8.44 ± 1.9%
same,percent Bodipy-positive cells,[5],5.76 ± 0.66%
same,percent Bodipy-positive cells,[2],7.27 ± 0.89%
CC1CCN=C(N)S1 (stereo not drawn),percent Bodipy-positive cells,[2],38.6 ± 5.3%
CC1CCN=C(N)S1 (stereo not drawn) [AMT hydrochloride],percent Bodipy-positive cells,[2],5.22 ± 1.6%
N#C/C(=C\c1ccc(O)c(O)c1)C(=O)NCCCc1ccccc1,percent Bodipy-positive cells,[2],10.5 ± 3.7%
CCCCCCCCCCCCCCCC(=O)O [Palmitic Acid],percent Bodipy-positive cells,[1],11.4 ± 0.49%
C/C(=C\C(=O)OCCCCCCCCC(=O)O)C[C@@H]1OC[C@H](C[C@@H]2O[C@H]2[C@@H](C)[C@H](C)O)[C@@H](O)[C@H]1O [Mupirocin],percent Bodipy-positive cells,[6],11.2 ± 2.5%
same,percent Bodipy-positive cells,[2],37.7% and 27.4%
Clc1ccc2c(c1)C(N1CCNCC1)=Nc1ccccc1O2 [Amoxapine],percent Bodipy-positive cells,,85.3 ± 7.7%
C[C@H]1NC(=O)NC1=O [Methylhydantoin-5-(D)],percent Bodipy-positive cells,,8.12 ± 1.3%
Cc1ccnc(NS(=O)(=O)c2ccc(N)cc2)n1 [Sulfamerazine],percent Bodipy-positive cells,,11.4 ± 2.6%
same,percent Bodipy-positive cells,[6],11.3 ± 1.9%
same,percent Bodipy-positive cells,library stock concentration: 7.6 mM,21.3 ± 2.3%
same,percent Bodipy-positive cells,[2],27.8% and 20.5%
NC(=O)OCC(COC(N)=O)c1ccccc1 [Felbamate],percent Bodipy-positive cells,[6],24.9 ± 9.5%
CCC[S+]([O-])c1ccc2[nH]c(NC(=O)OC)nc2c1 (stereo not drawn) [Albendazole Oxide],percent Bodipy-positive cells,[6],6.19 ± 2.6%
same,percent Bodipy-positive cells,[2],14.6 ± 1.4%
CCC[S+]([O-])c1ccc2[nH]c(NC(=O)OC)nc2c1 (stereo not drawn) [Ricobendazole],percent Bodipy-positive cells,library stock concentration: 7.1 mM,6.9 ± 5.7%
Cl.N#CC1=C(N)NC(=C2C(=O)C=CC=C2OCC2CC2)C=C1C1CCNCC1,percent Bodipy-positive cells,[2],84.3 ± 1.7%
"CCCCS(=N)(=O)CCC(N)C(=O)O (racemic) [DL-Buthionine-[S,R]-sulfoximine]",percent Bodipy-positive cells,[2],42 ± 0.51%
N=C(N)NCc1cccc(I)c1 [Iobenguane sulfate],percent Bodipy-positive cells,,28 ± 0.72%
CCCCC/C=C/CCC(=O)N[C@H]1[C@H](Oc2c3cc4cc2Oc2ccc(cc2Cl)[C@@H](O[C@@H]2O[C@H](CO)[C@@H](O)[C@H](O)[C@H]2NC(C)=O)[C@@H]2NC(=O)[C@H](NC(=O)[C@@H]4NC(=O)[C@H]4NC(=O)C(Cc5ccc(c(Cl)c5)O3)NC(=O)[C@H](N)c3ccc(O)c(c3)Oc3cc(O)cc4c3)c3ccc(O)c(c3)-c3c(OC4O[C@H](CO)[C@@H](O)[C@H](O)[C@@H]4O)cc(O)cc3[C@@H](C(=O)O)NC2=O)O[C@H](CO)[C@@H](O)[C@@H]1O (stereo partly drawn) [Teicoplanin [a(2-1) shown]],percent Bodipy-positive cells,library stock concentration: 1.1 mM,2.99 ± 1.5%
COc1ccc(C[C@H](N)C(=O)N[C@H]2[C@@H](O)[C@H](n3cnc4c(N(C)C)ncnc43)O[C@@H]2CO)cc1 [Puromycin?2HCl],percent Bodipy-positive cells,library stock concentration: 9.4 mM,91 ± 1.4%
COc1ccc(C[C@H](N)C(=O)N[C@H]2[C@@H](O)[C@H](n3cnc4c(N(C)C)ncnc43)O[C@@H]2CO)cc1 [Puromycin hydrochloride],percent Bodipy-positive cells,[2],97.4 ± 2.6%
COc1ccc(C[C@H](N)C(=O)N[C@H]2[C@@H](O)[C@H](n3cnc4c(N(C)C)ncnc43)O[C@@H]2CO)cc1 [Puromycin 2HCl],percent Bodipy-positive cells,[6],96.7 ± 2.4%
same,percent Bodipy-positive cells,[2],98.67 ± 0.68%
COc1ccc(C[C@H](N)C(=O)N[C@H]2[C@@H](O)[C@H](n3cnc4c(N(C)C)ncnc43)O[C@@H]2CO)cc1 [Puromycin dihydrochloride],percent Bodipy-positive cells,,96.9 ± 4.4%
[O-][n+]1cccc(CO)c1,percent Bodipy-positive cells,[2],42 ± 17%
OC(CC1c2ccccc2-c2cncn21)C1CCCCC1 (stereo not drawn),percent Bodipy-positive cells,[6],37.1 ± 2.2%
same,percent Bodipy-positive cells,[2],59 ± 7.2%
COCc1nc2c([nH]1)c(=O)n(C)c(=O)n2CC(C)C [8-methoxymethyl-IBMX],percent Bodipy-positive cells,library stock concentration: 18.8 mM,22.4 ± 8.1%
COCc1nc2c([nH]1)c(=O)n(C)c(=O)n2CC(C)C [8-Methoxymethyl-3-isobutyl-1-methylxanthine],percent Bodipy-positive cells,[2],46.9 ± 0.77%

# Fetched one by one from the list above:
smiles,measurement,setting,value
O=C(O)c1cc2cc(Cc3cccnc3)ccc2o1 [Furegrelate (sodium salt)],percent Bodipy-positive cells,[1],8.96 ± 1.3%
COc1ccc(C[C@H](N)C(=O)N[C@H]2[C@@H](O)[C@H](n3cnc4c(N(C)C)ncnc43)O[C@@H]2CO)cc1 [Puromycin 2HCl],percent Bodipy-positive cells,[2],98.67 ± 0.68%
COc1ccc(C[C@H](N)C(=O)N[C@H]2[C@@H](O)[C@H](n3cnc4c(N(C)C)ncnc43)O[C@@H]2CO)cc1 [Puromycin hydrochloride],percent Bodipy-positive cells,[2],97.4 ± 2.6%
NC(=O)c1ccc(I)c([N+](=O)[O-])c1 [Iniparib],percent Bodipy-positive cells,[4],52.2 ± 1.5%
